{"source": "PubChem BioAssay AID1508600", "about": "(Functional Genomics Laboratory (NCATS/FGL), 2020)", "note": "Among all 53,000 sequences or so, about 3,700 (7%) were called active.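 How the source made its calls: active means gene knockdowns whose robust z-score for IL-1 alpha signal is at least 2 or at most -2, so actives lie on both sides; inactive means the rest.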 The list shows a part of the results.", "data": [{"experiment": "Components of the Cytosolic LPS Sensing Pathway: Gene Identification via Genome-wide siRNA Screen;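 further: robust z of the log signal after scaling to non-targeting control siRNA wells of the plate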", "conditions": "RAW264.7 macrophages, IL-1a HTRF, actives lie on both sides, screened at 100 nM (by protocol), cells primed 5 h with Pam3CSK4 first", "how_it_was_run": "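RAW264.7; siRNA 100 nM final, RNAiMAX, 48h 37 degrees C; Pam3CSK4 5 h; LipidA + TransIT-TKO 24 h; IL-1a HTRF; CellTiter-Glo viability; robust z vs negative-control median.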", "values": [{"sequence": "GGAAGAGGAUGAGUUAGGGTT against Ppp1r1b", "z-score": "inactive: -1.24"}, {"sequence": "GGGCAUUUGCUGUAAAUUATT against Hace1", "z-score": "inactive: 0.611"}, {"sequence": "GCGGAGGAGUUUUCUUCGATT against Susd4", "z-score": "inactive: 0.93"}, {"sequence": "AAGGUUUGGAAACUCAUUGTT against Zbtb25", "z-score": "inactive: -1.77"}, {"sequence": "GCAUGUUUUCCACACCGGUTT against Vmn1r44", "z-score": "inactive: -0.135"}, {"sequence": "GCUUUUAGAAUAAAGCUGATT against Fgl2", "z-score": "inactive: 0.75"}, {"sequence": "GGGUGUUCCAGAAGUAUCUTT against Lars2", "z-score": "inactive: -1.76"}, {"sequence": "GCUACAGUAGUAAGACUAATT against Usp53", "z-score": "active: 2.67"}, {"sequence": "GGUGGCUGUACUUUUGAUGTT against Ptprk", "z-score": "inactive: -0.0561"}, {"sequence": "GGUCCCUCUACCCAAAGUUTT against Nsa2", "z-score": "inactive: -0.115"}, {"sequence": "GGCUUAAGUAUUUUUCUGATT against Aktip", "z-score": "inactive: -0.269"}, {"sequence": "CCAGUCGUGAACUUGAAAGTT against Gtf3c6", "z-score": "inactive: -0.935"}, {"sequence": "CCGAUAAUGCUUUCUUUGGTT against Ppp1cc", "z-score": "inactive: 0.547"}, {"sequence": "CGGAAAUCGGCAAGCUUCUTT against Dtymk", "z-score": "inactive: -0.306"}, {"sequence": "GGUCUUGGACUUGUAUUACTT against Pcdha4", "z-score": "inactive: -0.486"}, {"sequence": "CCAAAACUUCCUGUGGUUCTT against Mfsd13a", "z-score": "inactive: 0.334"}, {"sequence": "GGAUCUGUACAAGACUUAUTT against Olfr800", "z-score": "inactive: -0.011"}, {"sequence": "GGGUCAAAAAGUCAAAUCUTT against Vmn1r69", "z-score": "inactive: 0.997"}, {"sequence": "GCGGUUACAAAUAUGUGGGTT against Yif1a", "z-score": "inactive: 0.818"}, {"sequence": "GCCCAUUAUUUUCGGACUGTT against Olfr845", "z-score": "inactive: 1.03"}, {"sequence": "GGGCAUGAAAGAAUUCUUATT against D130040H23Rik", "z-score": "active: -2.83"}, {"sequence": "GCUUCGUGAGCAGUAUCUATT against Tpsb2", "z-score": "inactive: -1.03"}, {"sequence": "GGCCAUGAAGGAAUAUGAATT against Cdc37", "z-score": "inactive: -1.21"}, {"sequence": "GGGACUAACUUUCACCAGGTT against Wrap73", "z-score": "inactive: -0.609"}, {"sequence": "GCUGCAUUCGGUUACCACUTT against Olfml2b", "z-score": "inactive: 0.677"}, {"sequence": "CCGCGUAGUGGAUACAUUUTT against Ap3m2", "z-score": "inactive: -0.0673"}, {"sequence": "GGAACAAACGUGACUGUCATT against Rdh14", "z-score": "inactive: -0.155"}, {"sequence": "GAUGAUCUUUCUUUCCAUCTT against Plekhh1", "z-score": "inactive: 0.158"}, {"sequence": "GGACAGAUCGAAUGCCAGUTT against Pdpr", "z-score": "inactive: 0.821"}, {"sequence": "GGAAACCUCAUCCAUUCCCTT against Ei24", "z-score": "inactive: 1.52"}, {"sequence": "GGCUACCUUUGUUAAAUCUTT against Rab10", "z-score": "inactive: -0.336"}, {"sequence": "GGACAAGGCCCUCAUGAUUTT against Nek8", "z-score": "inactive: -0.468"}, {"sequence": "GCUCACUUGUAGUGCUUUATT against Arf2", "z-score": "inactive: 1.88"}, {"sequence": "GAGUUGUACUCUUCACUAUTT against Olfr497", "z-score": "active: -2.6"}, {"sequence": "GGAAAUAAAACAGAUUUGGTT against Atpaf1", "z-score": "inactive: 0.576"}, {"sequence": "GGUGAUCAUCCAUGAAUUCTT against Chaf1a", "z-score": "inactive: -1.2"}, {"sequence": "GGAUAUUCAUGUUUCAUUGTT against Vipr2", "z-score": "inactive: 0.836"}, {"sequence": "GGAAUGUAAGAACCCUUGCTT against Adam19", "z-score": "inactive: 1.77"}, {"sequence": "GCAUCCUCUCACUCUCAAUTT against Grin2a", "z-score": "active: 2.37"}, {"sequence": "GAGGUCAUUAUACCAUUGGTT against Tuba3b", "z-score": "inactive: 0.554"}, {"sequence": "GGAAUCCAACCUCUGUGAUTT against Cdca2", "z-score": "inactive: -0.091"}, {"sequence": "CCAACCUCCCAUUCUGAAUTT against Ttc22", "z-score": "inactive: 1.71"}, {"sequence": "GGGAGGGACUUUUAAACUUTT against Ube2n", "z-score": "inactive: -0.414"}, {"sequence": "CCAACUCGGCUGUUUUUUATT against F11r", "z-score": "inactive: 0.149"}, {"sequence": "GCCUAAAAAAUCUCUGUGATT against Zswim3", "z-score": "active: -2.77"}, {"sequence": "GGCUGAUCUCUUUUGCCAGTT against Reg2", "z-score": "inactive: 0.00409"}, {"sequence": "GCAAACUAUUUGUCUGGUGTT against Ripk1", "z-score": "inactive: 0.7"}, {"sequence": "CCAAGCACGCACCAAGAUCTT against Lrrc45", "z-score": "inactive: 0.365"}, {"sequence": "GCCAUGUUAACUGCCUCAATT against Bmyc", "z-score": "inactive: -0.306"}, {"sequence": "CGAGAUUGUCAGUCUUUCCTT against Pcgf2", "z-score": "inactive: 1.17"}, {"sequence": "CCCUCUCUACGAUGACUCUTT against Parm1", "z-score": "active: -2"}, {"sequence": "GGUACGGUUAAUAGCCACGTT against Snai2", "z-score": "inactive: -1"}, {"sequence": "CCCGAUUACUGGAGUUAAATT against Kbtbd7", "z-score": "active: 2.32"}, {"sequence": "GCGGUUGAUGUCCUGUGUUTT against Adra1b", "z-score": "inactive: -1.45"}, {"sequence": "GCAUUACCAAAAGCAGUCUTT against Lyn", "z-score": "inactive: -1.46"}, {"sequence": "GCUCCAACGUAAGUGGGAATT against 1700123L14Rik", "z-score": "inactive: -0.886"}, {"sequence": "CGUUCUUUUACAGUGCUUGTT against Lonrf3", "z-score": "inactive: 0.139"}, {"sequence": "GCGACAGUCCAACUUUUAATT against Allc", "z-score": "inactive: -1.87"}, {"sequence": "GGAGAAAAGGACUGAAGGCTT against Ralbp1", "z-score": "inactive: 1.43"}, {"sequence": "GGUAAAAGGUGCCUUGAGATT against Olfr446", "z-score": "inactive: 0.111"}, {"sequence": "GGCACUGAGGUUGUUCAGGTT against Eif3h", "z-score": "inactive: 0.806"}, {"sequence": "GCUUGACGCGAACUUACCATT against Endog", "z-score": "active: 2.35"}, {"sequence": "CCCUUCUCACUAACAUACATT against Dach1", "z-score": "inactive: 1.18"}, {"sequence": "GGCCAACAGGACAGAGAUGTT against Gm5105", "z-score": "inactive: 0.86"}, {"sequence": "GGAAAUGCUGCCAUUGUUATT against Aldh3a2", "z-score": "inactive: 0.333"}, {"sequence": "CGGUAAAGUGAAUCAUAGATT against Tas2r105", "z-score": "inactive: 0.726"}, {"sequence": "CCUUAAUAAACUAUGCUGCTT against Tonsl", "z-score": "inactive: -0.132"}, {"sequence": "GGAGCAACAGCCAAAUACCTT against Hmgb4", "z-score": "active: 2.39"}, {"sequence": "GGUGGUGAUAUCAAGAAUCTT against Sfxn3", "z-score": "inactive: -1.25"}, {"sequence": "GGAGUUCCUGAUUUACGUCTT against Usp50", "z-score": "inactive: -0.751"}, {"sequence": "CGUGUGGAGUAAACACCAATT against Herc3", "z-score": "inactive: -0.639"}, {"sequence": "GGGCAGUCAUAGCUUUAGUTT against Fndc11", "z-score": "inactive: 0.837"}, {"sequence": "GGAGCUUGAAGCAUCCUAGTT against Bdkrb2", "z-score": "inactive: -0.585"}, {"sequence": "CGAUGUCAUGCUCAGCGCATT against Nlgn2", "z-score": "inactive: -0.389"}, {"sequence": "GGGUGAUCUGUAGUAUUUUTT against Olfr574", "z-score": "inactive: -0.879"}, {"sequence": "GGAUGCUAUAUGUUGGCCGTT against Ly6g6g", "z-score": "inactive: 0.277"}, {"sequence": "GCUCCUGUGAUUGAUGCAGTT against Dync1h1", "z-score": "inactive: 0.528"}, {"sequence": "GCCUUAACCGCCAGAUGUCTT against 2900026A02Rik", "z-score": "inactive: 0.348"}, {"sequence": "GGAGCCGAGUACAACAUCATT against B4galnt1", "z-score": "inactive: -0.451"}, {"sequence": "GGAAGAGAGCCUCUGCCAATT against Ccnb2", "z-score": "active: 2.28"}, {"sequence": "GGUGGAAAAAUAUUCUGCATT against Kcnk2", "z-score": "inactive: 0.338"}, {"sequence": "GCUACUUGUUGAGACCCAATT against Esr1", "z-score": "inactive: -0.616"}, {"sequence": "GGCUGAGGAAUCAAAAUGUTT against Mdh1", "z-score": "inactive: 1.15"}, {"sequence": "CCGGGACAAGAAUUUCCUCTT against Xylt2", "z-score": "inactive: 1.17"}, {"sequence": "GCAGAUCGAGUGAGCUCUATT against Ccr2", "z-score": "inactive: -0.0424"}, {"sequence": "GGAGAUCAUCCACUUCCAGTT against Dbh", "z-score": "active: 2.06"}, {"sequence": "GGACACUUGCUCGACUUCATT against Palb2", "z-score": "inactive: -0.0168"}, {"sequence": "CCUUCCUCCUUUAUGAGCATT against Tsga10", "z-score": "inactive: -0.58"}, {"sequence": "GGAAGUGGUAAUUUCAGUATT against Ssr1", "z-score": "inactive: 1.45"}, {"sequence": "GGUUAUCAAAGCUAAGAAUTT against Ifi209", "z-score": "inactive: -0.0859"}, {"sequence": "CCUGGAUAUGCGCAAGUGUTT against Oxt", "z-score": "inactive: 1.56"}, {"sequence": "GGAGUGAAAAAAAUUCACATT against Chrna1", "z-score": "inactive: 0.378"}, {"sequence": "GGUUGAUGUCAGUGGAAGATT against Dab2ip", "z-score": "inactive: -0.15"}, {"sequence": "GACACAGCAUCUUCAUGGATT against Vmn1r42", "z-score": "inactive: 1.77"}, {"sequence": "GGUGGCUAUAACAGAGCCUTT against Rdh18-ps", "z-score": "inactive: 0.173"}, {"sequence": "GGAACACAAGAUUUUCCUGTT against Ppp2r5c", "z-score": "inactive: 0.559"}, {"sequence": "CGAGCGGAUGCUGGUAUUUTT against Kif18b", "z-score": "inactive: -1.78"}, {"sequence": "CCUGCAUGCCUAUGUGCGUTT against Ace", "z-score": "active: 2.89"}, {"sequence": "CCUUGUGAUUGACGAGUGUTT against Snrpg", "z-score": "inactive: -1.51"}, {"sequence": "GGAAUUGACUUUAAGACAATT against Boll", "z-score": "inactive: -0.413"}, {"sequence": "CGUGGAUGAGAACUAACCUTT against Rpl31", "z-score": "inactive: 1.24"}, {"sequence": "GGACAGUGCUCGAAACCGATT against Smagp", "z-score": "inactive: -0.58"}, {"sequence": "GGAAGAAGCACAAUUUGAATT against Selenof", "z-score": "inactive: -0.946"}, {"sequence": "GGUUUCAAUUCUGUGUUCATT against Unc5b", "z-score": "inactive: -1.42"}, {"sequence": "GGGUAGGUCCUUUGUAACCTT against Pcdhb16", "z-score": "inactive: -0.58"}, {"sequence": "CCCUAUACACAAGAUGAACTT against Cd96", "z-score": "inactive: -0.709"}, {"sequence": "GGUACAUGAUUACCAGCCUTT against Sdk2", "z-score": "active: -2.26"}]}]}
